According to publication PMC9879976:
No constants are given. Whether binding was seen depends on the method and setting. In cells and extracts the contact can be indirect.

Sequences of proteins named here, by UniProt entry; tags and fusion partners are left off.
UniProt Q8NHV4: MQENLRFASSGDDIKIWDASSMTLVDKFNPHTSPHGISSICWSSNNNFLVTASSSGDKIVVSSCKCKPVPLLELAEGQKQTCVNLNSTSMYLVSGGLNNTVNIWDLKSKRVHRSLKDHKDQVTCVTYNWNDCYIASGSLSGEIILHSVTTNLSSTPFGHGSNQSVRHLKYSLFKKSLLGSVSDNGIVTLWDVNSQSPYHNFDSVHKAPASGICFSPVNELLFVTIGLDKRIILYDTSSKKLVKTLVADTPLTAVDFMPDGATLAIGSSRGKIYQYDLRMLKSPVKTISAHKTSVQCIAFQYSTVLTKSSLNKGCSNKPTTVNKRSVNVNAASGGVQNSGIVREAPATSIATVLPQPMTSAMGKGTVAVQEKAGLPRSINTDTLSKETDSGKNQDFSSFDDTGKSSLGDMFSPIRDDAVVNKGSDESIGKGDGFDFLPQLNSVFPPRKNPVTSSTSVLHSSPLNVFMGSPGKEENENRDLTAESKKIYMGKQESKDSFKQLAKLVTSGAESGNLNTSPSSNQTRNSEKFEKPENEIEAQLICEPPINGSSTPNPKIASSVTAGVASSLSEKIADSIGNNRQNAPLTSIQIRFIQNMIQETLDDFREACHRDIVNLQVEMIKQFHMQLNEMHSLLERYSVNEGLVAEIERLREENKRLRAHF
UniProt Q14008: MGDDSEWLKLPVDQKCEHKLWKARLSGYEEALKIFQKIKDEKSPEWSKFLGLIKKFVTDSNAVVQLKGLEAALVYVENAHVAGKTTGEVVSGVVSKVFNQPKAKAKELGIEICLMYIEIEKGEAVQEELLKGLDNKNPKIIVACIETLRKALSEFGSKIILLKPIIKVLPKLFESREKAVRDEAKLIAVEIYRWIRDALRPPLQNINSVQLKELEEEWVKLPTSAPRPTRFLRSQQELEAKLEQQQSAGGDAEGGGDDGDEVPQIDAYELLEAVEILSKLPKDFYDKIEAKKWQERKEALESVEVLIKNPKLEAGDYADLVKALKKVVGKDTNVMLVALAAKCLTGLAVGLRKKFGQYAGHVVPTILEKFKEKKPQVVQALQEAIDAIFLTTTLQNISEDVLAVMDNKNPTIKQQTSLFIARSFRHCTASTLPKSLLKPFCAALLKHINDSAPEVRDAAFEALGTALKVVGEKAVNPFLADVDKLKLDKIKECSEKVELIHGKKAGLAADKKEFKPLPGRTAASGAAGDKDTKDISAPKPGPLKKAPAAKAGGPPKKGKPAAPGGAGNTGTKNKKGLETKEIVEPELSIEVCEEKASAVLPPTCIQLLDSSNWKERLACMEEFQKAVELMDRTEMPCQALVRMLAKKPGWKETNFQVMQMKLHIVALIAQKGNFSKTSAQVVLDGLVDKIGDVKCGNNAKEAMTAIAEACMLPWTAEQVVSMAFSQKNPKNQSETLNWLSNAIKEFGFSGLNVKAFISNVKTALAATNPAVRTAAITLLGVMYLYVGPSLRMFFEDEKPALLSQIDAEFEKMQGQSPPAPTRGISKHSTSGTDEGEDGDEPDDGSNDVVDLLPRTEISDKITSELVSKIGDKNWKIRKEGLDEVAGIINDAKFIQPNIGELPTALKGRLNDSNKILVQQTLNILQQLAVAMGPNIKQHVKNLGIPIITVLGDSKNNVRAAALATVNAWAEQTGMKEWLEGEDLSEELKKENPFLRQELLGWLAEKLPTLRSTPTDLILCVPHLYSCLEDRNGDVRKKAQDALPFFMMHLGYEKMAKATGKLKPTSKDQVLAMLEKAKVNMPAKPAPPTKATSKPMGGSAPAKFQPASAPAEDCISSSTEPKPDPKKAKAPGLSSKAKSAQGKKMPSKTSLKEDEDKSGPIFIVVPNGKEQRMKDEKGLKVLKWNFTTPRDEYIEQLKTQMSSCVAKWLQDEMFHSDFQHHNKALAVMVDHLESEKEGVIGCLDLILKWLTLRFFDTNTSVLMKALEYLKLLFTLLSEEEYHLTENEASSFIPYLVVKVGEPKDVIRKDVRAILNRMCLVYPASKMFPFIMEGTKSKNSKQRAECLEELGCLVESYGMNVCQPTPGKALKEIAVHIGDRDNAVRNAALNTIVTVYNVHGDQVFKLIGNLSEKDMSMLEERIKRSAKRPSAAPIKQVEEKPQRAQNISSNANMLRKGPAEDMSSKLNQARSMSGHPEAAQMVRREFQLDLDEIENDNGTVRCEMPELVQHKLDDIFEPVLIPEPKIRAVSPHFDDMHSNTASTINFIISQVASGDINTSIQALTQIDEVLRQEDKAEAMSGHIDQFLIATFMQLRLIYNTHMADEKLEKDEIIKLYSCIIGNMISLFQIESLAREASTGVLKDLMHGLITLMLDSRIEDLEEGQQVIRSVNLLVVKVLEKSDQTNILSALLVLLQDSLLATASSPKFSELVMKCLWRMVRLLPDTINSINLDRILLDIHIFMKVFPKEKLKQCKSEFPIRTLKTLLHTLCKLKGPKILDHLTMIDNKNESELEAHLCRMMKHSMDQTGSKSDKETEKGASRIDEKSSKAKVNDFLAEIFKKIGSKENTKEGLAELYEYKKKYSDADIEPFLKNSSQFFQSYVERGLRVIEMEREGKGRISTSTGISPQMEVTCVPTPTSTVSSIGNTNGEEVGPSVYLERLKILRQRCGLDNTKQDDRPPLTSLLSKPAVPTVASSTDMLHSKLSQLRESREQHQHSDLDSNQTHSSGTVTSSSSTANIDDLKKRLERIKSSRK

Target: NEDD1 (human (endogenous in U2OS)) (UniProt Q8NHV4)
Assay: co-IP; endogenous ch-TOG, GCP3 or NEDD1 immunoprecipitated from U2OS lysate (20 mM Tris-HCl pH 8.0, 100 mM NaCl, 1 mM EGTA, 1 mM MgCl2, 0.5% NP40), 30 min at 4 °C, Protein G dynabeads, Western blot; unspecific rabbit IgG as control

binding: no binding
Substance: ch-TOG (from UniProt Q14008 1-2032)
